The values that follow come from article PMC12594171, “DKK3-LRP1 complex and a chemical inhibitor regulate Aβ clearance in models of Alzheimer’s disease” (Science Advances, 2025).

Sequences of proteins named here, by UniProt entry; tags and fusion partners are left off. Residues count along the entry.
UniProt Q07954, residues 20-4544: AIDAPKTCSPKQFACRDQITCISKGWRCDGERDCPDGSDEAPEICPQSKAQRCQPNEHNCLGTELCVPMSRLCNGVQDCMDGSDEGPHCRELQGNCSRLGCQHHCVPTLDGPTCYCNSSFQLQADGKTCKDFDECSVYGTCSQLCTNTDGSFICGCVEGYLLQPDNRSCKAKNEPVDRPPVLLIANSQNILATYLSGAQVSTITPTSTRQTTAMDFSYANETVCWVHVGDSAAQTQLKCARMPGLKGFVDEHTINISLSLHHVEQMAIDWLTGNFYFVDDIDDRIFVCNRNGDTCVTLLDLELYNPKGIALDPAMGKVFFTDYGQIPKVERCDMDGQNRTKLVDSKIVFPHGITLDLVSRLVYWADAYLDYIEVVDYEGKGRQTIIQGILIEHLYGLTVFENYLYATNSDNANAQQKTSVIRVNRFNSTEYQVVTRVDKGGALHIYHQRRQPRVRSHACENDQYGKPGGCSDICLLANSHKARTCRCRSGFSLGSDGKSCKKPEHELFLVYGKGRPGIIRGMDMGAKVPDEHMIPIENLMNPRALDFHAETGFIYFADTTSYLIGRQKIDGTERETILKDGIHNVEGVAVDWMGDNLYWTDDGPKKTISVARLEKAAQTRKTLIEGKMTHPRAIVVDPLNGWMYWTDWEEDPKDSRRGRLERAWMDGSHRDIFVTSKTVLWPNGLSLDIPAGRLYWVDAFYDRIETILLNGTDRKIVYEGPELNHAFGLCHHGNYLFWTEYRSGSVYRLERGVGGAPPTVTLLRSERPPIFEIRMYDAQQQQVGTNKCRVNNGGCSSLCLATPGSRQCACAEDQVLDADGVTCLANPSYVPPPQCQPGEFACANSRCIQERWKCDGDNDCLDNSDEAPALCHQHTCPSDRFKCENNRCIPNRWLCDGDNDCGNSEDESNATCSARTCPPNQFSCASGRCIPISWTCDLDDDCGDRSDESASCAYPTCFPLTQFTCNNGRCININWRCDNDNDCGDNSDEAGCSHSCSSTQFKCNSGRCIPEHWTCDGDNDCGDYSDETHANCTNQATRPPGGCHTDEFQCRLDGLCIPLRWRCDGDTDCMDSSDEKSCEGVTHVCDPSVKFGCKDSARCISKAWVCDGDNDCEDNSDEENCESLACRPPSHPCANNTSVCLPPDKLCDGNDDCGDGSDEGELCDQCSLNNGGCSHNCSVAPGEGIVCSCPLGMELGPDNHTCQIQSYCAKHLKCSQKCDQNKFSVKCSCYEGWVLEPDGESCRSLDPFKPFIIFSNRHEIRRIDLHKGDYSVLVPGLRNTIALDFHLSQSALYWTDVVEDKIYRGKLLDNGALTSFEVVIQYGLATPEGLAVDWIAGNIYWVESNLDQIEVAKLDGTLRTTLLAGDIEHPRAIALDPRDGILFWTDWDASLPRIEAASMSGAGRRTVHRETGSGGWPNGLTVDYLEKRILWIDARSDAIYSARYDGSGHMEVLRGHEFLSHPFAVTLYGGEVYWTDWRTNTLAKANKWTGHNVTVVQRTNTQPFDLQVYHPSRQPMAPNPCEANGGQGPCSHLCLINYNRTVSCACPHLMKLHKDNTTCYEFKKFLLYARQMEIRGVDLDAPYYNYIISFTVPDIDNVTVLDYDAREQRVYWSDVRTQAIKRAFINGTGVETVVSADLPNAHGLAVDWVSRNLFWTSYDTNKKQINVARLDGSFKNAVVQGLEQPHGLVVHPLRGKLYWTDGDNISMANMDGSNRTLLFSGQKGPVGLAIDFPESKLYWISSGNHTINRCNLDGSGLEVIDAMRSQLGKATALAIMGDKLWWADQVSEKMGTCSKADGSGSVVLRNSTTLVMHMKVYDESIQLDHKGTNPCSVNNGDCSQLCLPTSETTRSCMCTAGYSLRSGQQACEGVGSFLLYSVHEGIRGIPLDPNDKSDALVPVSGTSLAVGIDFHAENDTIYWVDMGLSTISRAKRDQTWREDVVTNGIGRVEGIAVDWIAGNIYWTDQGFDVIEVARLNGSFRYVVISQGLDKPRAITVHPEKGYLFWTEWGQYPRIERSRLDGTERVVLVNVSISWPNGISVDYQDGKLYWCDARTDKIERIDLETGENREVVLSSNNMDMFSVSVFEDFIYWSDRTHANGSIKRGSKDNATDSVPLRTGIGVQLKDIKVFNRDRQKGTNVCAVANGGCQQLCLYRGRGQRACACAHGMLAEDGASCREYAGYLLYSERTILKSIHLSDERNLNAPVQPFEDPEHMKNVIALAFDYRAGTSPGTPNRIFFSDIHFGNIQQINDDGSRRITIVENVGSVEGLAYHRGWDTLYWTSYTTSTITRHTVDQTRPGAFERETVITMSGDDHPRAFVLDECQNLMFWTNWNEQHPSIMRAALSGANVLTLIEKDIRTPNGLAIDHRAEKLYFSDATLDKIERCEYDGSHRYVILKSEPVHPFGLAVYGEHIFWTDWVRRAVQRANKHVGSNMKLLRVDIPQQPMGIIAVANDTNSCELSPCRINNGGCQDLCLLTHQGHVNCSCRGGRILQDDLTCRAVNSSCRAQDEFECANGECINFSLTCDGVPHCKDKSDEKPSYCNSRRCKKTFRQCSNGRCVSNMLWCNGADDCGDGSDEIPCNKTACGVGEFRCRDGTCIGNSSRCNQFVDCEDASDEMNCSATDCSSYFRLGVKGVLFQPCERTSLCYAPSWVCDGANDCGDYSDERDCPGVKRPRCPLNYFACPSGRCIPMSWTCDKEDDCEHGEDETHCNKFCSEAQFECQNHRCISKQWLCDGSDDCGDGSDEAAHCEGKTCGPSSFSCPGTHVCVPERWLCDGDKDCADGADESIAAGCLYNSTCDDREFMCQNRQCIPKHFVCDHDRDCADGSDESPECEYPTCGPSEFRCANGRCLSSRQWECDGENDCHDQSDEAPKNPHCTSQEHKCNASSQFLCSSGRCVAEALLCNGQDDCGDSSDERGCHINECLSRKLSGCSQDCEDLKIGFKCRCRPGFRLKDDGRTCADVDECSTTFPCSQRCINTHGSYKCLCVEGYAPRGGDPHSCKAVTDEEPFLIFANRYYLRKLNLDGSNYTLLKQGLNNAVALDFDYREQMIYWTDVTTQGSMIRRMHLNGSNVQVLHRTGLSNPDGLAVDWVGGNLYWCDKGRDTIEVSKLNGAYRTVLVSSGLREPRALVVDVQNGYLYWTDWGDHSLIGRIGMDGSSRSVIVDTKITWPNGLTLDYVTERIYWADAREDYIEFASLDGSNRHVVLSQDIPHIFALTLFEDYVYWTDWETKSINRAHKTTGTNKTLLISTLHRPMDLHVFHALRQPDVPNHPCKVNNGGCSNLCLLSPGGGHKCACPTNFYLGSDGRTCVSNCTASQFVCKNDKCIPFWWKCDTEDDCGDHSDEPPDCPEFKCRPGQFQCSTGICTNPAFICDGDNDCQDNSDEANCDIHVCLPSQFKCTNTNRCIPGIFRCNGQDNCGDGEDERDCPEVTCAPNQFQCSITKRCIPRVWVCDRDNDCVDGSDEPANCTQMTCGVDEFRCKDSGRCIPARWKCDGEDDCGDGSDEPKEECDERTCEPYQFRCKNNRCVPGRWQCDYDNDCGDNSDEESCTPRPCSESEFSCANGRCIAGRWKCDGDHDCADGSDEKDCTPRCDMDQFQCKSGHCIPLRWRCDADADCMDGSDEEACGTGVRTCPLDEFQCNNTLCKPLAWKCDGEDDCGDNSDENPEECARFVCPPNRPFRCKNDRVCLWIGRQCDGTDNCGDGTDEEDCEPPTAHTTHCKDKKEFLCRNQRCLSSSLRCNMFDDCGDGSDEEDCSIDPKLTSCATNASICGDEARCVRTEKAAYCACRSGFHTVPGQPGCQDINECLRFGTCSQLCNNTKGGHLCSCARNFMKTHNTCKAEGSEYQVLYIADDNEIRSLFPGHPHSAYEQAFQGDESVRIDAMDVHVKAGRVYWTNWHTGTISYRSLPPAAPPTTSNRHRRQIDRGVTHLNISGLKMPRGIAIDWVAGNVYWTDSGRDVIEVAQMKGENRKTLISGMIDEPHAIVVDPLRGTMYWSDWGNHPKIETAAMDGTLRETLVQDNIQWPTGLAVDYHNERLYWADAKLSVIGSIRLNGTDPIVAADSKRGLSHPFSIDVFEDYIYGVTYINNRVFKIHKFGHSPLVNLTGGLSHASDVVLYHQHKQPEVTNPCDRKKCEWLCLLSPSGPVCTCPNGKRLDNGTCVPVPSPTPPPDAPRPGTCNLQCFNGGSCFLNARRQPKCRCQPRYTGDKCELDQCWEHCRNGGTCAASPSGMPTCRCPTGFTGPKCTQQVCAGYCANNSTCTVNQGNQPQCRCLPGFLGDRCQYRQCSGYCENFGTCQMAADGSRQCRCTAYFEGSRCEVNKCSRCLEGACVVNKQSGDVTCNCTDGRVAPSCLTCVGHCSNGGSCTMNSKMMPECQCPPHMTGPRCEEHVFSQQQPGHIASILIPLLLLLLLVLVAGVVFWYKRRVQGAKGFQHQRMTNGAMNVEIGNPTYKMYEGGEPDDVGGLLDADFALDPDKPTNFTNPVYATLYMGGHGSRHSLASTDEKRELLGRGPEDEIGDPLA

These are yes or no findings as the source states them, for the method shown. Binding seen in cells or lysates may run through a third protein. Some entries that bind do so weakly or less than the wild type. Tags and fused reporters may be left off the sequences shown.

In the experiment the target is LRP1, endogenous in differentiated AD-NSC cultures (human (endogenous in iPSC-derived AD-NSC cultures)) (UniProt Q07954). Nature of the experiment: co-IP; differentiated AD-NSC cultures incubated with 1 μM Aβ42 and various concentrations of purified DKK1-Flag or DKK3-Flag for 30 min; total extract precipitated with anti-LRP1 antibody; immunoblot; only the binder purified. In general terms: A western blot detects proteins with antibodies after separation by electrophoresis.

B1: DKK1-Flag (ligand, UniProt O94907 32-266)
chain: TLNSVLNSNAIKNLPPPLGGAAGHPGSAVSAAPGILYPGGNKYQTIDNYQPYPCAEDEECGTDEYCASPTRGGDAGVQICLACRKRRKRCMRHAMCCPGNYCKNGICVSSDQNHFRGEIEETITESFGNDHSTLDGYSRRTTLSSKMYHTKGQEGSVCLRSSDCASGLCCARHFWSKICKPVLKEGQVCTKHRRKGSHGLEIFQRCYCGEGLSCRIQKDHHQASNSSRLHTCQRH
Consider B1, for which the binding result is “binds”.
